Taken from: PubChem BioAssay AID652259 (Drosophila RNAi Screening Center, 2013)
Test: 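Genome-wide hunt for genes that control Wingless pathway activity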 (primary screen). Cell system: Drosophila clone 8 imaginal disc epithelial cells. Knock-down reagent: long dsRNA against Drosophila genes. Challenge: pathway stimulated by co-transfected Wingless expression plasmid. Measured: 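Dual luciferase reads per well after Wingless plasmid stimulation: reporter firefly light and Renilla control light; activity is firefly divided by Renilla, a ratio not deposited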. Scale: firefly reporter light: higher = more Wg reporter light, before normalisation; Renilla control light: higher = more transfected or surviving cells. Active means: 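a knock-down is a candidate when at least two out of four statistical tests show it departing from its plate mean; one test alone signals a weak candidate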. Calls: active = candidate regulator (raises or lowers reporter); inactive = not a candidate.
In all, the deposit lists about 22,000 reagents; this is an unselected part of those with a known target gene and a result. Of all reagents, 233 (1.1%) were called active. 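Light values are raw, unnormalised plate reads; the ratio scores behind the reporter calls were not deposited.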 Reagent sequences are not shown. Not stated in the record: the amount of reagent, the time to read-out, the dose of the treatment.

Against Hk (Hyperkinetic) [DRSC17638], the values are firefly reporter light, replicate 1 = 1264; Renilla control light, replicate 1 = 1009; inactive.
Hk (Hyperkinetic) [DRSC17639] showed firefly reporter light, replicate 1 = 3936; Renilla control light, replicate 1 = 728; inactive.
Hk (Hyperkinetic) [DRSC18138] showed firefly reporter light, replicate 1 = 2528; firefly reporter light, replicate 2 = 6368; Renilla control light, replicate 1 = 659; Renilla control light, replicate 2 = 1264; inactive.
For Hk (Hyperkinetic) [DRSC18674], the values are firefly reporter light, replicate 1 = 13125; Renilla control light, replicate 1 = 5692; inactive.
Golgin245 (Golgin-245) [DRSC04374] scored firefly reporter light, replicate 1 = 20519; Renilla control light, replicate 1 = 4864; inactive.
After knock-down of Golgin245 (Golgin-245) [DRSC22012], the record shows firefly reporter light, replicate 1 = 5.31e5; firefly reporter light, replicate 2 = 5.13e5; Renilla control light, replicate 1 = 1.95e5; Renilla control light, replicate 2 = 1.99e5; inactive.
After knock-down of DCP2 (Decapping protein 2) [DRSC09399], the screen gave firefly reporter light, replicate 1 = 3340; Renilla control light, replicate 1 = 1410; inactive.
Against DCP2 (Decapping protein 2) [DRSC10597], the entry reads firefly reporter light, replicate 1 = 4624; Renilla control light, replicate 1 = 1927; inactive.
Against Grl65a (Gustatory receptor-like 65a) [DRSC08837] the deposit lists firefly reporter light, replicate 1 = 2421; Renilla control light, replicate 1 = 1698; inactive.
CG3662 [DRSC00626] gave firefly reporter light, replicate 1 = 6967; Renilla control light, replicate 1 = 3076; inactive.
For CG17118 [DRSC02579], the values are firefly reporter light, replicate 1 = 3196; firefly reporter light, replicate 2 = 4772; Renilla control light, replicate 1 = 1020; Renilla control light, replicate 2 = 2160; inactive.
CG12310 [DRSC09878] gave firefly reporter light, replicate 1 = 6902; Renilla control light, replicate 1 = 1913; inactive.
Against CG2126 [DRSC15418], the entry reads firefly reporter light, replicate 1 = 20762; Renilla control light, replicate 1 = 16100; inactive.
After knock-down of stet (stem cell tumor) [DRSC08246] the results were firefly reporter light, replicate 1 = 3571; Renilla control light, replicate 1 = 2355; inactive.
stet (stem cell tumor) [DRSC08283] showed firefly reporter light, replicate 1 = 7789; Renilla control light, replicate 1 = 2534; inactive.
CG5079 [DRSC15713] showed firefly reporter light, replicate 1 = 15963; Renilla control light, replicate 1 = 6648; inactive.
With knock-down of CG43078 [DRSC10292] the results were firefly reporter light, replicate 1 = 4160; Renilla control light, replicate 1 = 1362; inactive.
CG43078 [DRSC10608] scored firefly reporter light, replicate 1 = 4659; Renilla control light, replicate 1 = 2681; inactive.
Knock-down of CG43078 [DRSC21541] resulted in: firefly reporter light, replicate 1 = 4.09e5; firefly reporter light, replicate 2 = 4.84e5; Renilla control light, replicate 1 = 2.23e5; Renilla control light, replicate 2 = 1.58e5; inactive.
After knock-down of CG43078 [DRSC22327], the screen gave firefly reporter light, replicate 1 = 4.20e5; firefly reporter light, replicate 2 = 4.44e5; Renilla control light, replicate 1 = 2.08e5; Renilla control light, replicate 2 = 2.21e5; inactive.
After knock-down of GAPsec (GTPase activating protein, SECIS-dependent read-through) [DRSC10564], the screen gave firefly reporter light, replicate 1 = 3419; Renilla control light, replicate 1 = 1490; inactive.
With knock-down of ric8a [DRSC18093] the results were firefly reporter light, replicate 1 = 2393; firefly reporter light, replicate 2 = 4304; Renilla control light, replicate 1 = 661; Renilla control light, replicate 2 = 1371; inactive.
CG43108 [DRSC05654] gave firefly reporter light, replicate 1 = 29304; Renilla control light, replicate 1 = 18710; inactive.
Silencing of Chc (Clathrin heavy chain) [DRSC20229] came out at: firefly reporter light, replicate 1 = 4880; firefly reporter light, replicate 2 = 10276; Renilla control light, replicate 1 = 850; Renilla control light, replicate 2 = 1923; inactive.
For aru (arouser) [DRSC00802] the deposit lists firefly reporter light, replicate 1 = 3429; firefly reporter light, replicate 2 = 9013; Renilla control light, replicate 1 = 1689; Renilla control light, replicate 2 = 3985; inactive.
Silencing of aru (arouser) [DRSC22019] came out at: firefly reporter light, replicate 1 = 5.42e5; firefly reporter light, replicate 2 = 5.03e5; Renilla control light, replicate 1 = 1.25e5; Renilla control light, replicate 2 = 1.52e5; inactive.
After knock-down of Taf11 (TBP-associated factor 11) [DRSC03448], the record shows firefly reporter light, replicate 1 = 2880; firefly reporter light, replicate 2 = 4816; Renilla control light, replicate 1 = 723; Renilla control light, replicate 2 = 2521; inactive.
Against Twdlalpha (Tweedlealpha) [DRSC19914], the entry reads firefly reporter light, replicate 1 = 21841; Renilla control light, replicate 1 = 8360; inactive.
For LeuRS (Leucyl-tRNA synthetase) [DRSC00581], the values are firefly reporter light, replicate 1 = 3444; firefly reporter light, replicate 2 = 10277; Renilla control light, replicate 1 = 1330; Renilla control light, replicate 2 = 3341; inactive.
For P58IPK [DRSC16404] the deposit lists firefly reporter light, replicate 1 = 11554; Renilla control light, replicate 1 = 2912; inactive.
Silencing of CG4793 [DRSC01966] gave: firefly reporter light, replicate 1 = 2713; firefly reporter light, replicate 2 = 5451; Renilla control light, replicate 1 = 842; Renilla control light, replicate 2 = 2377; inactive.
Silencing of CG17684 [DRSC07724] resulted in: firefly reporter light, replicate 1 = 15334; Renilla control light, replicate 1 = 10857; inactive.
CG17684 [DRSC21166] scored firefly reporter light, replicate 1 = 15372; Renilla control light, replicate 1 = 10547; inactive.
